# Results: article PMC11699347, “Heme regulates protein interactions and phosphorylation of BACH2 intrinsically disordered region in humoral response” (iScience, 2024)
# Experiments:
# [1] = test system: GST-BACH2_331-839 + MBP-MafK; assay: EMSA; details: 32P-labeled ds probes, 30 min incubation, 4% polyacrylamide gel, pH and temperature not stated, recombinant protein, protein details: N-terminal GST,MBP, label: 32P 5' end (PNK)
# [2] = test system: GST-BACH2_331-839 + MBP-MafK; assay: competition with a labelled probe; details: unlabeled competitor against TBK1#2_WT probe, did not compete; 32P-labeled ds probes, 30 min incubation, 4% polyacrylamide gel; pH and temperature not stated; recombinant protein; protein details: N-terminal GST,MBP; label: none (competitor)
sequence,measurement,setting,value
GACTAAAACATGACTCAGCACACCCAACG (double strand) [TBK1#2_WT],binding result,"[1]; supershift/block with anti-BACH2, self-competition",binds
GACTAAAAGAGATAAATCGGGACCCAACG (double strand) [TBK1#2_Mut],binding result,[2],no binding
TAGCCTGTGCTGATTCAGCAAGCCGT (double strand) [TBK1#1_WT],binding result,[1]; substantially weaker than site #2,binds more weakly

# For at least one entry, the source does not settle the construct or the ends of the probe. For part of these data: A negative result means that nothing was seen under these conditions. For part of these data: A weaker result is weaker than the reference pair of the same experiment.
